For this experiment, the target named is T1, Rabaptin5 (UniProt Q15276).
T1 sequence: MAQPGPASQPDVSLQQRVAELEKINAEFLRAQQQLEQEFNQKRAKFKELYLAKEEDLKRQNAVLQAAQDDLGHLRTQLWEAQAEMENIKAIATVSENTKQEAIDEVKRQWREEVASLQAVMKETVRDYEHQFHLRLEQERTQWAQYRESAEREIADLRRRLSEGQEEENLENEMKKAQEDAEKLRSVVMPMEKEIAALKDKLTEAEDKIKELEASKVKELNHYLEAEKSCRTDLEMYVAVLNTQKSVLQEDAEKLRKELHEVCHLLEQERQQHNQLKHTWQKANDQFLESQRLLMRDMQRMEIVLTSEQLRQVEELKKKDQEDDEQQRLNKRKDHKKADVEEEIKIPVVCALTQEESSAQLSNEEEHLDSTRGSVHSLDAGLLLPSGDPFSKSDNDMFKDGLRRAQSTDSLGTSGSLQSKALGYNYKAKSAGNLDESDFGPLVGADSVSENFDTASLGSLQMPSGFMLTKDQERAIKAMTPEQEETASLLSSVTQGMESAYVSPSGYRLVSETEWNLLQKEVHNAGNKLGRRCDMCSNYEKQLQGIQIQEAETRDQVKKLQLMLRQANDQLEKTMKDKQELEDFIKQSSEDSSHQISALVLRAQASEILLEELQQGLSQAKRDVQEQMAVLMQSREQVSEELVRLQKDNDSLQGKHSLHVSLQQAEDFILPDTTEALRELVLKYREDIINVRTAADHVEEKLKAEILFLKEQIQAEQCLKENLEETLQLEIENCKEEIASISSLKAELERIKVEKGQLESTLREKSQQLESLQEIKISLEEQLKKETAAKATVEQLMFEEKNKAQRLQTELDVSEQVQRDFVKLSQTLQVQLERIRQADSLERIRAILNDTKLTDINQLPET
The experiment is described as follows: co-purification.

Chains of the proteins cited; added tags and fusions are not shown.
UniProt Q9UJ41: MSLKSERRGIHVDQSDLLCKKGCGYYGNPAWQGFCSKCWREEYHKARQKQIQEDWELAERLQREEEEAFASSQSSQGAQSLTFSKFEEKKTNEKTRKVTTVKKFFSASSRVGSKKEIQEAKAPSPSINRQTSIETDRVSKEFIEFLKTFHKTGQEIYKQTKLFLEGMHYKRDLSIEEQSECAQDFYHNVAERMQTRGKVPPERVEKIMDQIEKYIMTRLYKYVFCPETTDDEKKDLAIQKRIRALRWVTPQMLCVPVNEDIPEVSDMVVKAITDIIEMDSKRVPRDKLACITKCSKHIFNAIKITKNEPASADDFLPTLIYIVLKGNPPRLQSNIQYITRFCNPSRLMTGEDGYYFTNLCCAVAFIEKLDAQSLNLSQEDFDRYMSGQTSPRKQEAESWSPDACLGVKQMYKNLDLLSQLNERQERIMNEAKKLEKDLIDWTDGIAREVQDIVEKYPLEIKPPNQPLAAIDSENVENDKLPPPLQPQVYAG

These are yes or no findings as the source states them, for the method shown. Some entries that bind do so weakly or less than the wild type.

Turning to “Rabex5 (from UniProt Q9UJ41 1-491) (enzyme)”, the binding result is listed as “binds”.

Source of the values: doi:10.1101/776567.
